## Primary screen of a compound library

Data taken from ChEMBL document CHEMBL3988442, “University of Dundee, Small-Polar-MMV Screening Library” (2021).

T. brucei: 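Whole-parasite assay of Trypanosoma brucei over 72 hours; the read-out is not stated. Concentration: 30 µM. Higher reads as stronger inhibition (inferred: compounds with an IC50 in retests scored well above the rest). Values scatter widely below zero; nearly all retest evidence comes from the higher of the two concentrations used. Of about 64,000 compounds tested this way, about 940 (1.5%) reached 50% or more in at least one test.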
Toxoplasma: 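Assay of Toxoplasma gondii numbers, read through their beta-galactosidase reporter with a colour substrate. Compounds at 10 µM. The record gives no direction; the compounds picked for IC50 retests had high values, so higher reads as fewer parasites. Of about 67,000 compounds tested this way, about 260 (0.38%) reached 50% or more in at least one test.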

The filed quantity is “Percent Effect” (%). The record does not define 0% and 100%; most values in the screen are far below 50% and negative numbers occur (in some assays of this library far below -100). Compounds were drawn at random from those tested, without regard to their results. A dash means the value is not listed here; it may have been measured.

SMILES,T. brucei,Toxoplasma
CCC(=O)c1ccc(OCC(=O)NCC2CCCO2)cc1 (configuration not stated),9.667%,-7.023%
CN(C)C1CCN(C(=O)c2cccc(S(=O)(=O)NCC3(C)COC3)c2)C1 (configuration not stated),-5.276%,8.395%
CC(c1ccc(Br)cc1)N1CCCN(C(N)=O)CC1 (configuration not stated),-13.97%,-6.443%
Cc1nc(N2CCOCC2)nc2c1CCN(Cc1cccnc1)CC2.O=C(O)C(F)(F)F,-58.83%,4.915%
Cc1cnn(CC2CN(Cc3ccc(C(N)=O)cc3)CCO2)c1 (configuration not stated),-1.281%,4.035%
CC[C@@H]1N(Cc2ccccn2)CCC[C@]12CCC(=O)N2CCOC,-28.56%,31.71%
CC(=O)N1CCC(C(=O)NCc2ncc(-c3ccccc3)o2)CC1,-32.86%,-7.531%
CCC1CN(Cc2nnc(C3CC3)o2)CCN1CCOC (configuration not stated),-32.11%,0.2528%
CC(C)CCc1n[nH]c(C(=O)O)c1Cl,2.664%,18.49%
O=C1CC(c2ccc(C(=O)O)cc2)c2ncn(-c3ccc(F)cc3)c2N1 (configuration not stated),-0.9802%,-3.508%
CC(C)CN1CC2(CCN(C(=O)C3CNC(=O)N3)CC2)CC1=O (configuration not stated),-31.15%,3.668%
Cc1nnc(NCC(c2ccco2)N2CCCC2)c(C#N)c1C (configuration not stated),-43.16%,-0.8083%
CSc1cc2c(cc1NC(=O)NCC1CCOC1)OCCO2 (configuration not stated),-20.84%,-3.291%
Cn1c(N2CC[C@H](O)C2)nc2cc(C(N)=O)ccc21,-73.78%,11.36%
Cc1cnc(NC(=O)N2CCCCCC2)s1,-20.59%,17.78%
Cc1nn(C)c(C)c1C1CCCN1C(=O)CCCNc1ncccn1 (configuration not stated),-,0.3141%
O=C(O)C(F)(F)F.O=C(O)C(F)(F)F.c1cncc(OCc2noc3c2CN(Cc2cccs2)CC3)c1,-9.325%,-3.356%
CC(C)(C)Nc1c(C2CCN(C(=O)C(C)(C)C)CC2)nc2ccccn12,24.06%,3.244%
COc1ccc(C2CCCN2Cc2nnnn2C2CC2)cc1OC (configuration not stated),1.85%,3.753%
O=C(CCc1ccccc1F)NC1CCCN(c2ccccn2)C1 (configuration not stated),10.65%,12.63%
Cc1ccc(C2CCCCCN2CCNS(C)(=O)=O)o1 (configuration not stated),-15.26%,9.903%
O=C1COC2(CCN(c3ccccn3)CC2)CN1Cc1ccccn1,18.3%,3.393%
Cc1cccc(N2CCCC3(C2)CN(S(=O)(=O)C2CC2)CCO3)c1.O=C(O)C(F)(F)F (configuration not stated),-28.61%,-1.136%
[H][C@@]12C[C@@H](Oc3cccnc3)CN1CCN(C(=O)c1ccncc1)C2,-20.59%,3.968%
CC(C)CCN1N=C(C(=O)N2CCCCCC2)S(=O)(=O)c2ccccc21,-19.64%,-4.258%
O=C(c1n[nH]c2c1CCC2)N1CCCC1c1nc(-c2ccccc2)no1 (configuration not stated),-34.86%,1.955%
O=C(NC1CCN(C2CC2)CC1)NC1CCOc2ccc(Br)cc21 (configuration not stated),-43.49%,8.971%
CC(C)n1ccnc1C1CCCN(c2nc3ccccc3s2)C1 (configuration not stated),22.08%,5.681%
Cc1cc(-c2nn(C)c(Cl)c2CN2CCCCC(N)C2)no1 (configuration not stated),-16.02%,-10.57%
Cc1ccc2c(n1)N(CCN(C)C)CCN(Cc1c(C)noc1C)C2.O=C(O)C(F)(F)F.O=C(O)C(F)(F)F.O=C(O)C(F)(F)F,-,-3.313%
CC(C)c1cc(NCC2(Cn3cccn3)CC2)nc(N)n1,-27.21%,-15.47%
CCc1ncc(CN(C)C2CCN(C(C)C)CC2)cn1.O=C(O)CC(O)(CC(=O)O)C(=O)O,-,-1.938%
Cc1c(C(C)NCc2cnn(C)c2)cnn1-c1ccccc1 (configuration not stated),-,12.71%
CC(C)N(C)C(=O)c1ccc(CNc2ncc(C#N)cc2Cl)cc1,3.189%,-5.98%
Cc1nc(NC(=O)CCOCC(F)(F)F)ccc1Br,10.88%,-4.618%
Cc1cnc(N2CCCC(c3ccccc3)C2)nc1-c1ccnn1C (configuration not stated),-20.87%,17.28%
CCC(C)NS(=O)(=O)c1ccc(/C=C\c2onc(C)c2NC(C)=O)cc1 (configuration not stated),-2.597%,-0.5859%
Cc1cc(CN(C)Cc2ncc(-c3ccccc3)o2)no1,-13.61%,-16.88%
CC(C)c1noc(CN2CCN(CCO)CC2)n1,-,17.45%
CC(C)CCn1[nH]c(CNc2ccc(Cl)cc2)nc1=O,-18.26%,5.025%
COc1cc(OC)c(C2CC(=O)Oc3cc(C)[nH]c(=O)c32)c(OC)c1 (configuration not stated),-8.588%,4.617%
CCC(=O)N1CCCC(C(=O)N2CCN(c3cnn(C)c(=O)c3)CC2)C1 (configuration not stated),-0.8194%,-8.036%
CS(=O)(=O)Cc1nc(CCc2ccccc2)nn1-c1ccccn1,-34.53%,3.128%
COc1ccccc1-c1noc(CNc2ccc(F)cc2OCCO)n1,-11.38%,-12.02%
Cc1cncc(C2CCN(Cc3ccncc3)CC2)n1,-8.033%,10.79%
O=C1COc2c(cccc2C(=O)N2CCCCC2Cn2cccn2)N1 (configuration not stated),26.05%,-3.131%
[H][C@]12CC[C@]([H])(CN(Cc3ccccc3)C1)N(C(=O)CCCN(C)C)C2,11.71%,-6.282%
O=C(O)C(F)(F)F.O=C(O)C(F)(F)F.[H][C@]12CCN(c3ncc(C)cn3)[C@@]1([H])CC[C@@H](COCc1ccccn1)O2,-24.18%,0.5565%
COc1ccc(CNC2CCCN(Cc3noc(C)n3)C2)cc1F (configuration not stated),-26.69%,2.012%
c1ccc(Cn2ccnc2CNCC2CCCN2c2cccnn2)cc1 (configuration not stated),-22.53%,11.95%
O=C(O)C(F)(F)F.O=C(O)C(F)(F)F.O=C1CCC2(CCN(Cc3ccc(F)cc3)CC2)N1CCN1CCCC1,-27.18%,5.038%
Cc1ccc(OC2(C(=O)O)CCN(C/C=C/c3ccco3)CC2)c(C)n1,-13.97%,-7.246%
CC(C)(C)OC(=O)Cn1cccc(S(=O)(=O)N2CCCCCC2)c1=O,-10.49%,-25.29%

Once more, the final 5:

| SMILES | T. brucei | Toxoplasma |
|---|---|---|
| `COc1ccc(CNC2CCCN(Cc3noc(C)n3)C2)cc1F` (configuration not stated) | -26.69% | 2.012% |
| `c1ccc(Cn2ccnc2CNCC2CCCN2c2cccnn2)cc1` (configuration not stated) | -22.53% | 11.95% |
| `O=C(O)C(F)(F)F.O=C(O)C(F)(F)F.O=C1CCC2(CCN(Cc3ccc(F)cc3)CC2)N1CCN1CCCC1` | -27.18% | 5.038% |
| `Cc1ccc(OC2(C(=O)O)CCN(C/C=C/c3ccco3)CC2)c(C)n1` | -13.97% | -7.246% |
| `CC(C)(C)OC(=O)Cn1cccc(S(=O)(=O)N2CCCCCC2)c1=O` | -10.49% | -25.29% |